No constants are given. Whether binding was seen depends on the method and setting. In cells and extracts the contact can be indirect. Some entries that bind do so weakly or less than the wild type.
Target: MK2 (mitogen-activated protein kinase-activated protein kinase 2), endogenous in HEK293 cells (human (endogenous in HEK293)) (UniProt P49137)
Test: co-IP; HEK293 lysates, endogenous proteins; immunoprecipitation with MK2 antiserum; blots with PDE4B, PDE4C and PDE4D antisera; bead-only control

The chains behind the UniProt entries cited, without tags or fusion partners. Where a name states a change or a piece, a line headed by the entry shows the natural chain unless it says otherwise. A line that says so, or that is headed by a name, gives the form on record, which may keep a tag or linker. Residues count along the entry.
UniProt P49137: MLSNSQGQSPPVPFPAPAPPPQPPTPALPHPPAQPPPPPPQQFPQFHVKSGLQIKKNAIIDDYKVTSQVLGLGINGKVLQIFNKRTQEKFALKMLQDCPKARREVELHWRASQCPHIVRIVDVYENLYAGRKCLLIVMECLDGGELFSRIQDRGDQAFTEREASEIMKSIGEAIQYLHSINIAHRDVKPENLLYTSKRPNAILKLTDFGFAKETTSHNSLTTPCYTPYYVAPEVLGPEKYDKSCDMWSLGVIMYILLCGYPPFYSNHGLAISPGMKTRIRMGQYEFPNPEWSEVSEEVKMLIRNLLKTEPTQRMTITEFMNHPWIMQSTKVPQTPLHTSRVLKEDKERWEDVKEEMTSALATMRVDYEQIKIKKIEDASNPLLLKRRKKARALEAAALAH
UniProt Q08493, residues 107-712: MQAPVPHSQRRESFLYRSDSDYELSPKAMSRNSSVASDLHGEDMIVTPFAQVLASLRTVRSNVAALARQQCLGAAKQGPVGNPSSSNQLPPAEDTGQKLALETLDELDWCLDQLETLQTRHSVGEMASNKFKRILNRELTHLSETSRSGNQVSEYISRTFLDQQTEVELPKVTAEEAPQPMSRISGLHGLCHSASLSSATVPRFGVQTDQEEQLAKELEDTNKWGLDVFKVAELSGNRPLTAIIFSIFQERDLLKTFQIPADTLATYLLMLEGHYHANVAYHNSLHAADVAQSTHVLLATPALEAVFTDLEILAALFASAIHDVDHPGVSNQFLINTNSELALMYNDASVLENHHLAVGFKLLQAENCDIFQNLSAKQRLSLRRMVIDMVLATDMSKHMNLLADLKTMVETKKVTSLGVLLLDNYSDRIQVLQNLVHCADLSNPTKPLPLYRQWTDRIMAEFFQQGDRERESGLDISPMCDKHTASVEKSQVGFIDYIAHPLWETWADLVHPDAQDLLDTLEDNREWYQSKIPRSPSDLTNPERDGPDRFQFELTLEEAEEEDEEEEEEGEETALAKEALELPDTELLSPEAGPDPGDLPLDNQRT
PDE4D9, endogenous long PDE4D isoform (Q08499-10, form named): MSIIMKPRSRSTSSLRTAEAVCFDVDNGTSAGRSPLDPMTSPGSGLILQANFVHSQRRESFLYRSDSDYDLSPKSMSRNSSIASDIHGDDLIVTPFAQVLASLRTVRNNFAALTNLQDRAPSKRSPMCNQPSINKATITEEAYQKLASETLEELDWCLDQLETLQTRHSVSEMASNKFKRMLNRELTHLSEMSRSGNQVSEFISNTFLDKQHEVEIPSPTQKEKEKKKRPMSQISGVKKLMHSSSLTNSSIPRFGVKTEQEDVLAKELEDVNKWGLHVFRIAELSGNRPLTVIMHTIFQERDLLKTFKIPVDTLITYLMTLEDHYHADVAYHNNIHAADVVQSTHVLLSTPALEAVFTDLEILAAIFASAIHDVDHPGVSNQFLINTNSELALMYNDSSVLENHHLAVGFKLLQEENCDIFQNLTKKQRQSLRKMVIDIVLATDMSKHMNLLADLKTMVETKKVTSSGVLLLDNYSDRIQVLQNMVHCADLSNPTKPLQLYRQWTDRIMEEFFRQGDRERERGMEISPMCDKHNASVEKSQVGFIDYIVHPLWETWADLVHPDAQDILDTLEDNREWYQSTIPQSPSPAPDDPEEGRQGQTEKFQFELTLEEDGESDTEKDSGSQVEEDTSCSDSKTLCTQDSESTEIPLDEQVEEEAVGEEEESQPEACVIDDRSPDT

Row | Substance | binding
1 | PDE4B1, endogenous long PDE4B isoform (from UniProt Q07343-1 1-736) (enzyme) | binds
2 | PDE4C2, endogenous long PDE4C isoform (from UniProt Q08493-2 1-606) (enzyme) | binds
3 | PDE4D9, endogenous long PDE4D isoform (from UniProt Q08499-10 1-679) (enzyme) | binds

Reference: PMC5290487
